Laboratory results published in patent publication US20210371817A1, “COMPOSITIONS AND METHODS FOR PRECISE PATTERNING OF POSTERIOR NEUROECTODERM FROM HUMAN PLURIPOTENT STEM CELLS” (WISCONSIN ALUMNI RESEARCH FOUNDATION, priority 2013, published 2021).
“Also recorded” adds a separate entry of the source. For part of these data: For at least one compound, name, drawing or mass did not settle the structure. Some of these results come from one statement about several compounds together.

How the values were obtained:
[1] = tested on: neuromesodermal cells; test: Pax6 and HoxD10 expression after GDF11 with or without dorsomorphin, then RA; format: cell-based, human; conditions: compared to standard FGF8b/CHIR 99021/GDF11 cocktail prior to RA
Source text: (FIG. 7A) Timeline of differentiation. (FIG. 7B) qPCR assessment of lumbar/sacral gene expression at day 12. A minimum concentration of GDF11 is required to activate HoxD10 and HoxA11. Each gene is normalized to the maximum GDF11 dose. Error bars are standard deviation calculated from duplicate reactions. (FIG. 7C) Expression of Pax6 in response to increased GDF11 concentrations. Data were collected by flow cytometry and represented as mean±standard deviation calculated from two biological replicates. Sox2 was uniformly expressed regardless of GDF11 treatment (data not shown). […] Grey histograms, IgG control; Red histograms, Pax6. Data are representative of two biological replicates. […] Percentages were quantified as HoxD10 labeling relative to DAPI-stained nuclei (>2500 total cells counted per sample). Scale bars, 100 μm
After neural tube closure in vivo, opposing gradients of TGFβ and SHH signaling produce distinct dorsal and ventral domains from which sensory neurons, interneurons, and motor neurons arise. Pax6, which has been identified as a neuroectoderm fate determinant, is expressed throughout most of the neural tube but is absent from the most dorsal and ventral domains. […] The ability of GDF11 to control rostral/caudal patterning is mediated by signaling via ALK5 and activation of the SMAD2/3 complex. […]

[2] = tested on: H9 hESCs; test: HOX, OTX2 and T gene expression by RT-PCR/qPCR during hESC differentiation with morphogens; format: cell-based, human
Description: hPSC differentiation. hPSCs were washed once with phosphate-buffered saline (PBS; Invitrogen), dissociated with ACCUTASE® (Invitrogen) for 3 min, and collected by centrifugation. hPSCs were then seeded onto VTN-NC-coated plates in E8 medium containing 10 μM ROCK inhibitor (Y27632; R&D Systems). Seeding density was 2×10^5 cells/cm^2. The following day, the cells were switched to E6 medium (same composition as E8 medium minus FGF2 and TGFβ 1). Morphogen treatments were then carried out according to the figures in the text. Cells were supplemented with FGF8b (100-200 ng/ml; Peprotech), CHIR99021 (3-6 μM; Tocris), and/or RA (3 μM; Sigma).
Reverse transcriptase polymerase chain reaction (RT-PCR). Total RNA was extracted from cells using TRIZOL® reagent (Invitrogen) according to the manufacturer's instructions. RNA was then subjected to reverse-transcription using a Thermoscript™ RT-PCR kit (Invitrogen) in a 20 μL mixture according to the manufacturer's instructions. […]
(§1) qPCR. […] For all experiments, ΔΔCt values for each gene were calculated relative to ribosomal protein S18 (RPS18) RNA levels and converted to fold difference assuming 100% primer efficiency, then normalized to maximum expression levels as indicated in each figure legend. […]

[3] = tested on: neuromesodermal cultures; test: Effect of signaling pathway inhibitors on neuromesodermal identity (Sox2 and T by flow cytometry); conditions: LY-294002 10 μM, U0126 10 μM, GF109203X 3 μM, or all three at 1 μM; after 2 days
Source text: (FIG. 13A) Timeline of neuromesodermal differentiation and inhibitor addition. (FIG. 13B) Neuromesodermal identity assessed by Sox2 and Brachyury (T) expression after two days. Grey histograms, IgG control. Red histograms, label of interest. LY, LY-294002; U0126, U0126; Gf, GF109203X.
In an attempt to identify which downstream signaling pathways are responsible for FGF's effects, we performed our protocol with various combinations of a PI3K inhibitor (LY-294002), an MEK inhibitor (U0126), and a PKC inhibitor (GF109203X), and measured Sox2 and T levels using flow cytometry.

[4] = tested on: H9 ishcat2 line; test: qPCR gene expression in H9 ishcat2 line (doxycycline-inducible β-catenin shRNA); format: cell-based, human; conditions: RA-treated cells; day 2
Description: Cell lines were passaged for differentiation on day −1 for all experiments (see Example 4 for details). (FIG. 4A) Timeline of H9 hESC differentiation corresponding to panels (FIG. 4B) and (FIG. 4C). RA, 1 μM; CHIR 99021, 3 μM; FGF8b, 100 ng/ml. (FIG. 4B) Gene expression analysis by RT-PCR. Control sample is E6 medium alone. (FIG. 4C) qPCR analysis at day 5 of differentiation normalized to the morphogen treatment that yielded maximum expression. Statistical significance was calculated using the Student's unpaired t-test relative to the sample with maximum expression (*, p<0.005; **, p<0.001). (FIG. 4D) qPCR analysis of gene expression at day 2 using the H9 ishcat2 line in the presence or absence of doxycycline (2 μg/ml) added 3 days prior to morphogen treatment. Data are normalized to doxycycline-free samples for each respective morphogen and statistical significance was calculated using the Student's unpaired t-test (*, p<0.01). […] Statistical significance was calculated using the Student's unpaired t-test (*, p<0.005). […]
as §1

Compound: c1cc(-c2cnn3cc(-c4ccc(OCCN5CCCCC5)cc4)cnc23)ccn1 [dorsomorphin]
- HoxD10 expression [1]: did not reduce HoxD10 expression
- HoxD10 expression ([1]; listed as Dorsomorphin): does not affect the acquisition of HoxD10

Compound: CC1=C(/C=C/C(C)=C/C=C/C(C)=C/C(=O)O)C(C)(C)CCC1 [RA, retinoic acid]
- Arrest of HOX gene activation/progression ([2]; FGF8b and CHIR 99021 removed, RA added): sufficient to halt Hox gene activation; also recorded: sufficient to arrest HOX progression
- HOX gene activation (RT-PCR) ([2]; morphogen added to E6 medium, up to 4 days): induced progressive HOX activation from HOXA1 down to HOXC5

Compound: O=c1cc(N2CCOCC2)oc2c(-c3ccccc3)cccc12 [LY-294002]
- Brachyury+ cells [3]: 70-85%

Compound: C[C@H]1c2cccc(O)c2C(=O)C2=C(O)[C@]3(O)C(=O)C(C(N)=O)=C(O)[C@@H](N(C)C)[C@@H]3[C@@H](O)[C@@H]21 [doxycycline]
- HOXA1 or HOXB1 expression [4]: did not reduce
